Data from PubChem BioAssay AID1259415 (National Center for Advancing Translational Sciences (NCATS), 2018).
The whole screen tested about 410,000 compounds, of which about 18,000 (4.4%) were called active. Inconclusive means that the source gave no clear call. Such entries were picked first, then a sample of the others. No stated cut-off is given here; in the data, active means activity change below about -60%; inconclusive means no clear call, values can overlap the other calls; inactive means above about -39%.

Assay: qHTS Assay for inhibitors of the human cytomegalovirus (HCMV)
Conditions: HFF cells, HCMV-luciferase reporter, 72 h; at 57.5 µM; hits give low values
How it was run: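 Screen run at 2 compound doses on HFFs infected with reporter HCMV, MOI 1 PFU/cell. Luciferase activity from cell lysates at 72 h post infection gave inhibition relative to buffer-only and Salinomycin wells.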
On the % scale 0 is the no-effect control and ±100 the full control effect.

Row | SMILES | activity change, negative = inhibition
1 | CCC(C)NC(=O)c1c(F)c(F)c(F)c(F)c1F (centres undefined) | active: -67.7%
2 | O=C(O)c1ccccc1-c1ccccc1C(=O)NNc1ccccc1 | inconclusive: -40.1%
3 | CCn1cc(C(=O)NCc2ccccc2OC)c(=O)c2cc(S(=O)(=O)N3CCCCC3)ccc21 | active: -76.7%
4 | Cc1nc2ccccc2n1CC(=O)NCc1ccccc1 | active: -78.9%
5 | CCc1ccc(/C=C2\SC(=S)N(CCCC(=O)Nc3nccs3)C2=O)cc1 | active: -93.5%
6 | O=C1NCCN(Cc2ccoc2)C1CC(=O)N(Cc1ccccc1)CC1CCC1 (centres undefined) | inactive: -27.4%
7 | COc1ccccc1C1NC(=O)NC(C)=C1C(=O)OC1CCCC(C)C1 (centres undefined) | inconclusive: -50.2%
8 | CCNC(=O)c1cc2c(=O)n3cccc(C)c3nc2n(CCc2ccccc2)c1=N | active: -103%
9 | O=C(CCN1C(=O)C2CC=CCC2C1=O)OCC(=O)c1ccc(F)cc1 (centres undefined) | active: -75.9%
10 | Cn1c(=O)c2sccc2n2c(CCCC(=O)NCCc3ccccc3)nnc12 | inactive: -1.63%
11 | O=C(c1ccc(-c2ccccc2)cc1)C1CCCN(Cc2ccncc2)C1 (centres undefined) | inconclusive: -45.7%
12 | CC(C)=CCN1CCN(Cc2cnc(-c3ccccc3)s2)CC1CCO (centres undefined) | inconclusive: -40.4%
13 | COc1ccc(CCNC(=O)c2cc3c(=O)n4ccccc4nc3n(CCCN3CCOCC3)c2=N)cc1OC | inconclusive: 0%
14 | Nc1c2c(nc3sc4c(c13)CCCCC4)CCCC2 | active: -71%
15 | Cc1cccc(-c2noc(CN(C(=O)c3ccc4c(c3)OCO4)C(C)C)n2)c1 | inactive: 0.42%
16 | COC(=O)COc1cccc2c(=O)n(CC(=O)NCc3ccccc3)ccc12 | inconclusive: -45.1%
17 | Cc1cc(=O)n(C)c(=O)n1CCCCOc1cccc([N+](=O)[O-])c1 | inconclusive: -48.6%
18 | COc1ccc2c(c1OC)C(=O)N1C2SC(C)(C)[C@H]1C(=O)NCCCOC(C)C (some centres undefined) | inconclusive: -54.2%
19 | O=C(Nc1ccccn1)c1csc2c1CCCC2 | inactive: 8.52%
20 | Cn1c(=O)c2c([nH]c(=O)n2Cc2ccc(Cl)cc2Cl)n(C)c1=O | inactive: 9.45%
21 | CC1(C(=O)NCc2ccccc2)CN(S(C)(=O)=O)CC(=O)N1CCc1ccccc1F (centres undefined) | inactive: -9.12%
22 | Cc1nc2ccccc2c(=O)n1-c1cc(F)ccc1F | inactive: 4.73%

Row | SMILES | activity change, negative = inhibition
23 | Oc1ccc(C[C@H]2CNC(=S)N2CC2CCCN2C[C@H](Cc2ccccc2)N2C[C@H](Cc3ccc(O)cc3)N(CCc3ccccc3)C2=S)cc1 (some centres undefined) | inconclusive: -54.8%
24 | O=C(NC(=S)NCc1ccc(F)cc1)c1ccccc1 | inconclusive: -50.5%
25 | O=C(NC(=S)N1CCOCC1)C12CCC3CC(CC(C3)C1)C2 | inconclusive: -54.2%
26 | CC1CCCN(CCCNS(=O)(=O)c2cc(Br)cc3c2N(C(=O)C2CC2)CC3)C1 (centres undefined) | inactive: -9.5%
27 | COc1ccc(-c2nc(CNS(=O)(=O)c3ccccc3)cs2)cc1 | inconclusive: -58.8%
28 | COc1ccc(N(Cc2ccccc2)S(=O)(=O)c2ccc(C)cc2)cc1 | inconclusive: -45%
29 | CC(OC(=O)c1ccccc1NS(=O)(=O)c1cccc(N)c1)C(=O)N(C)Cc1ccccc1 (centres undefined) | active: -72.1%
30 | COc1ccc(C(=O)NCC(=O)N/N=C/c2ccc([N+](=O)[O-])o2)cc1OC | inconclusive: -42.6%
31 | CC(=O)c1ccc(NC(=S)Nc2ccn(Cc3ccc(Br)cc3)n2)cc1 | inactive: 24.4%
32 | Cc1nc2ccccc2c2c(N)c3ccccc3n12 | active: -62.6%
33 | Cc1c(C#N)c(NC(=O)CCl)n(Cc2ccccc2)c1C | inconclusive: -41.6%
34 | COc1ccc(-n2nc3c(N4CCCC(C(=O)NCc5cccc(F)c5)C4)nnc(C)c3c2C)cc1 (centres undefined) | active: -84.1%
35 | c1ccc(-c2csc3ncnc(NCC4COc5ccccc5O4)c23)cc1 (centres undefined) | active: -87.7%
36 | Cn1c(SCC(=O)NC2CCCCC2)nnc1-c1ccccc1F | inconclusive: -47.2%
37 | CCc1ccc(NC(=O)CN(c2ccc3c(c2)OCO3)S(=O)(=O)c2c(C)noc2C)cc1 | active: -70.8%
38 | OCCOCCNc1ncnc2c1cnn2-c1ccccc1 | inactive: 211%
39 | NNc1nc(-c2ccccc2)cc(-c2ccc(Br)cc2)n1 | inconclusive: -50.7%
40 | CC(=O)Nc1ccc(NC(=O)c2ccc(NS(=O)(=O)c3cc(C(C)(C)C)ccc3C)cc2)cc1 | inconclusive: -41.3%
41 | CCc1ccccc1OC[C@@H](O)CN[C@H]1CCCc2ccccc21 | inconclusive: -40.4%
42 | Cc1ccc(Cn2c(C(=O)O)c(CNC3CCCCCC3)c3ccc(C)cc32)cc1 | inactive: 12.7%
43 | CCOC(=O)c1ccc(/[N+]([O-])=C/c2ccccc2)cc1 | inactive: 48.2%
44 | CN(C)/C=C1\C(=O)N(c2ccc([N+](=O)[O-])cc2)N=C1c1ccccc1 | inactive: 108%

3 entries from above, ordered by SMILES length, rising.
Row | SMILES | activity change, negative = inhibition
32 | Cc1nc2ccccc2c2c(N)c3ccccc3n12 | active: -62.6%
24 | O=C(NC(=S)NCc1ccc(F)cc1)c1ccccc1 | inconclusive: -50.5%
26 | CC1CCCN(CCCNS(=O)(=O)c2cc(Br)cc3c2N(C(=O)C2CC2)CC3)C1 (centres undefined) | inactive: -9.5%
